Assay results from the supplement of paper PMC12067093, “Discovery and optimisation of a covalent ligand for TRIM25 and its application to targeted protein ubiquitination” (Chemical Science, 2025).
The other results are listed elsewhere or left out.

The chains behind the UniProt entries cited, without tags or fusion partners. Where a name states a change or a piece, a line headed by the entry shows the natural chain unless it says otherwise.
UniProt Q86TJ2: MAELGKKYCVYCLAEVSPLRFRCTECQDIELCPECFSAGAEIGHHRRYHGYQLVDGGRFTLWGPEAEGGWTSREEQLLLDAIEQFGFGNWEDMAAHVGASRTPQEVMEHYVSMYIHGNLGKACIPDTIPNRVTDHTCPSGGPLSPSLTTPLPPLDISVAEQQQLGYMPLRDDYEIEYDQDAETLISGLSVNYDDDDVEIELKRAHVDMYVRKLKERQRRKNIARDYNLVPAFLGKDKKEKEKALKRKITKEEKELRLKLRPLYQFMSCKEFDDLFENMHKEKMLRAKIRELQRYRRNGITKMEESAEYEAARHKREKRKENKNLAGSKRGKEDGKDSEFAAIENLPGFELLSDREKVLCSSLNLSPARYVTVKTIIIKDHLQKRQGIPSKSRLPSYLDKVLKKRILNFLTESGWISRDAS
UniProt Q9NU19: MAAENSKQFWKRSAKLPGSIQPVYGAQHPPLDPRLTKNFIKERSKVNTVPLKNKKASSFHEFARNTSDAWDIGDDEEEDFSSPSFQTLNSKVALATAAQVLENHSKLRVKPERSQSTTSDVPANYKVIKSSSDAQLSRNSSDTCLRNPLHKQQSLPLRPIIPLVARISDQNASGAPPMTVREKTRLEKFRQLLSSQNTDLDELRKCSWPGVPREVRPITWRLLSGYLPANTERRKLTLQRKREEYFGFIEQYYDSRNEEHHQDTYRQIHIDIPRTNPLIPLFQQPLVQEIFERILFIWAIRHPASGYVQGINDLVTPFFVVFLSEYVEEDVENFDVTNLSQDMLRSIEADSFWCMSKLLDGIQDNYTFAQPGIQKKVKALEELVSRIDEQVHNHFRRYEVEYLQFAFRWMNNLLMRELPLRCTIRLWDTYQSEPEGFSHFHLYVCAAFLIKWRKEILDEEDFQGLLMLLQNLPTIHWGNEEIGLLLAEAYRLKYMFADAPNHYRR
UniProt P37802: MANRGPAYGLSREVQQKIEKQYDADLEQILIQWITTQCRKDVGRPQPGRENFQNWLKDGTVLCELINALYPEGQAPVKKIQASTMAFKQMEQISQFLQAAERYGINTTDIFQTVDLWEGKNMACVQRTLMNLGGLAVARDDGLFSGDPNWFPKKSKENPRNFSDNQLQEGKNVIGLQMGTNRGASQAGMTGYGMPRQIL
UniProt Q0IIM8: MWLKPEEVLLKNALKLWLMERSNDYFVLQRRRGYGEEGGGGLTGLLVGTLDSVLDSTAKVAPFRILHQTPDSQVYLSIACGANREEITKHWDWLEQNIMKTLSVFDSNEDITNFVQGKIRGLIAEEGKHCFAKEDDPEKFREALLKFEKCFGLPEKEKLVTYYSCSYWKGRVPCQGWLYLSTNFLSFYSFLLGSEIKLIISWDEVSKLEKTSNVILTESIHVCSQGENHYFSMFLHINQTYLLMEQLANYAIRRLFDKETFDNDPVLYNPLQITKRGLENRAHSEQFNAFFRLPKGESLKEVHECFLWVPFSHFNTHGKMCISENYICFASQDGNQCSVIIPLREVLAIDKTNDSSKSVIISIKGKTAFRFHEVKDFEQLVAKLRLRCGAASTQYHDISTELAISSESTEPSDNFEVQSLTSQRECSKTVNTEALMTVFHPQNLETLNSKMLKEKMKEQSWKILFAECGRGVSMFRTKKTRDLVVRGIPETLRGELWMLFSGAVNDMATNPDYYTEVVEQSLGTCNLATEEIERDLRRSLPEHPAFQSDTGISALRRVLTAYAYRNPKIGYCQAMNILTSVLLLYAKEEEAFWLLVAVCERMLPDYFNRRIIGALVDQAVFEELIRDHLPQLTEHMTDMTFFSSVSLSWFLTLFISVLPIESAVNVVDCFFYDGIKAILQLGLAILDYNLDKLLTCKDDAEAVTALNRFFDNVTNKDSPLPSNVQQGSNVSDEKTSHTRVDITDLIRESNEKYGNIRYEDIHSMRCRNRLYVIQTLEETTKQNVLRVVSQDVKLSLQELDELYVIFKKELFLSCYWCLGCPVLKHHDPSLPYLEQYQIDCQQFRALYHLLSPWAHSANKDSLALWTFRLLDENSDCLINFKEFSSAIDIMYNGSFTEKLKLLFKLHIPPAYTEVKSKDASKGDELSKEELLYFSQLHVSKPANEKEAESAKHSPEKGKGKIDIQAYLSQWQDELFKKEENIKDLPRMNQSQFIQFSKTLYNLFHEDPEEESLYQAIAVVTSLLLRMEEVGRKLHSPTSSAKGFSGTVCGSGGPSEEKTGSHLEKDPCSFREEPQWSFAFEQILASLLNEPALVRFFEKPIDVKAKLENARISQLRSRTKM
UniProt Q9Y4P3: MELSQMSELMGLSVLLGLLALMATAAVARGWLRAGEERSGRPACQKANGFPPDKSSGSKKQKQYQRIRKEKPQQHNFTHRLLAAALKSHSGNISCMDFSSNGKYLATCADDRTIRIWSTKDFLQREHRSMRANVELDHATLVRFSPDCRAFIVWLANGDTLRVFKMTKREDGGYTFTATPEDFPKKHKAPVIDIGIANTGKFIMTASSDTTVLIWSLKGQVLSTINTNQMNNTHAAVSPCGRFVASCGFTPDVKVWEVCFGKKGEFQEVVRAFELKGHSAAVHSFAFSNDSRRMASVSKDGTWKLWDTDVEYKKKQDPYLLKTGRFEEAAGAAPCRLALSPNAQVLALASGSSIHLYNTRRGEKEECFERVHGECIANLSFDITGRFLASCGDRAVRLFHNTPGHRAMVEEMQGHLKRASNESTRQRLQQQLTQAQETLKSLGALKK
UniProt Q9ULP9: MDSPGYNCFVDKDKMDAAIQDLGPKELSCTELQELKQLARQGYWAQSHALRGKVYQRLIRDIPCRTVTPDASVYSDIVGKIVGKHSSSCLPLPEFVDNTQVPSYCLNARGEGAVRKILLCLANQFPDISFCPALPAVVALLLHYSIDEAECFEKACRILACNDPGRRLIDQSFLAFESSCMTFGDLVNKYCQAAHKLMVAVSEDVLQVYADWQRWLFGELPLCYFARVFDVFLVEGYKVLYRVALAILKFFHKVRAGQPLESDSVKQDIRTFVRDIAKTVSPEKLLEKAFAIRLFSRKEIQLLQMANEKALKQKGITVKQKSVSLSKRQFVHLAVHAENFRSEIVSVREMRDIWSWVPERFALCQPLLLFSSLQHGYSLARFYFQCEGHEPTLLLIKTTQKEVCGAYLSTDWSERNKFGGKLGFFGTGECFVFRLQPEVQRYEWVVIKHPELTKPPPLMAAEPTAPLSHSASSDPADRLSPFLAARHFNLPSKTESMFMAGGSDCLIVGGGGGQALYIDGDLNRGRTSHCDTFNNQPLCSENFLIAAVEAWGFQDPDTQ
UniProt Q13488, whole entry, looked up: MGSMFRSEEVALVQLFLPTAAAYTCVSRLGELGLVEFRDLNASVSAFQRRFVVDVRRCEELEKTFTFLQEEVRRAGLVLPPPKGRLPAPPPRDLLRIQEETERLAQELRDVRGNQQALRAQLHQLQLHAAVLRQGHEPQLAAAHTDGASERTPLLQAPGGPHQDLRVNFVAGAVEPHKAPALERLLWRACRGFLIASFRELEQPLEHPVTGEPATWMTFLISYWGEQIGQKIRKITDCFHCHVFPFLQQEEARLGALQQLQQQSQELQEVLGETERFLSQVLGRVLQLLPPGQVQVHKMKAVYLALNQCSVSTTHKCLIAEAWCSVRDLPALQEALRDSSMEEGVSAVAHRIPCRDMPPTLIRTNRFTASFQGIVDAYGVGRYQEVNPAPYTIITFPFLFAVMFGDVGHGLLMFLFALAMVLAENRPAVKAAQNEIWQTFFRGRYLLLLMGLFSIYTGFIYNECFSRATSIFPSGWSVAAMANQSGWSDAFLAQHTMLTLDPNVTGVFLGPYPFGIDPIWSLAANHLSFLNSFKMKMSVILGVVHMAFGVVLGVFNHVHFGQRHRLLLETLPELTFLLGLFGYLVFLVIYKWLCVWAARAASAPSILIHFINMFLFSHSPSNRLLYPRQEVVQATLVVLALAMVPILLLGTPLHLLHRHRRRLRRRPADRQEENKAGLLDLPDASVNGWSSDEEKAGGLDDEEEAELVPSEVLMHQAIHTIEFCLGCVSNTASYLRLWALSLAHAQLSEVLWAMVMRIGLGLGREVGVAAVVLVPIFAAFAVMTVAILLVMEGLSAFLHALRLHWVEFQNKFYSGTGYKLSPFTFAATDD
UniProt Q9NVG8: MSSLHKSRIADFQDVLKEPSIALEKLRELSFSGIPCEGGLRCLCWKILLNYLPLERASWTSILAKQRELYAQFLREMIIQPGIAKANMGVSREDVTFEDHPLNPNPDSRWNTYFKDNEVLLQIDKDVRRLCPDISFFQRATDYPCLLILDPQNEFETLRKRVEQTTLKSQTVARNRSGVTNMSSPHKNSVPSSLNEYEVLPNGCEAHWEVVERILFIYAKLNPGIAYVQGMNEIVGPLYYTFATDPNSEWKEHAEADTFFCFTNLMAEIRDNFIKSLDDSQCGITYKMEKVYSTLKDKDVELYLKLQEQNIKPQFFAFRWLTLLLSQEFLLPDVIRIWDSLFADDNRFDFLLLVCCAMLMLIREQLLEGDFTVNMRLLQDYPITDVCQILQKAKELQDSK
UniProt Q12788: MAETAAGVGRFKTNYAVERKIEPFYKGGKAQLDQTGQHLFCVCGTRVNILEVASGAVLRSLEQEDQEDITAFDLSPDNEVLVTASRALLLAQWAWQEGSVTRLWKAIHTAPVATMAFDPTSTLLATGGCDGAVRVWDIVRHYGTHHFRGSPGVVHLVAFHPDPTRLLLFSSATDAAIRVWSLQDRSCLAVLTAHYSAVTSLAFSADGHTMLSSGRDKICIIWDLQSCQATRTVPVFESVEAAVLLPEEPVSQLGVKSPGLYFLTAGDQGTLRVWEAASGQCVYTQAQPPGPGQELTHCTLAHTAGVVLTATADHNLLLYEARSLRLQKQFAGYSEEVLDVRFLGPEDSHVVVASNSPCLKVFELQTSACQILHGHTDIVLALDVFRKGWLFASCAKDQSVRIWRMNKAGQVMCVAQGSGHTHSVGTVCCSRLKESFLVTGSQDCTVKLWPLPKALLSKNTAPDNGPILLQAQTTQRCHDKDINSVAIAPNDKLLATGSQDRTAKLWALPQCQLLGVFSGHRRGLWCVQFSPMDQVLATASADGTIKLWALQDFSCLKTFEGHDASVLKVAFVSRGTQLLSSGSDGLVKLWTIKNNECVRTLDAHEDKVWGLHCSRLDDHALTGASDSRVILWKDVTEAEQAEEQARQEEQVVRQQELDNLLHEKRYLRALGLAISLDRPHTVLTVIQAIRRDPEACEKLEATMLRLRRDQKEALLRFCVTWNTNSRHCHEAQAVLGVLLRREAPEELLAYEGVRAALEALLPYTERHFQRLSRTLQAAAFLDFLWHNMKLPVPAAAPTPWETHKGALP
UniProt Q9BW92: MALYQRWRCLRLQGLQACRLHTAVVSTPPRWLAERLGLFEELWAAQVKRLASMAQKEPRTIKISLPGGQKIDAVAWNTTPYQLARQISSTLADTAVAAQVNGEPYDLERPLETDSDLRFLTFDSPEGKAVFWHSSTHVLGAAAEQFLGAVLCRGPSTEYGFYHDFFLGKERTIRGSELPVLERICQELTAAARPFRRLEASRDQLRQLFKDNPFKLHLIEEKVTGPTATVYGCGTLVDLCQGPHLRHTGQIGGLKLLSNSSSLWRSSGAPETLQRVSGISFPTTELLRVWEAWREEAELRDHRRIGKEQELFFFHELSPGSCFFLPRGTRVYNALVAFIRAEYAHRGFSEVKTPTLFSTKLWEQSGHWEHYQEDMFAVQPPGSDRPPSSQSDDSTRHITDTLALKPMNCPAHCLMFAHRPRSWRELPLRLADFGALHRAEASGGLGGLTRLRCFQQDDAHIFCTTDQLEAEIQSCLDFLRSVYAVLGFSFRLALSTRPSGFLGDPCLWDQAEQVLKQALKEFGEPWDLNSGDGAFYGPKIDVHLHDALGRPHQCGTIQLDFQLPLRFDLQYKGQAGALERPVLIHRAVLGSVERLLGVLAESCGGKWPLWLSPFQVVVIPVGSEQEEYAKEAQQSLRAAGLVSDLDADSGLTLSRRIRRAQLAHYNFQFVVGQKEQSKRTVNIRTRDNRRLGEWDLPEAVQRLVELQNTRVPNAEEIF
UniProt Q6NXT6: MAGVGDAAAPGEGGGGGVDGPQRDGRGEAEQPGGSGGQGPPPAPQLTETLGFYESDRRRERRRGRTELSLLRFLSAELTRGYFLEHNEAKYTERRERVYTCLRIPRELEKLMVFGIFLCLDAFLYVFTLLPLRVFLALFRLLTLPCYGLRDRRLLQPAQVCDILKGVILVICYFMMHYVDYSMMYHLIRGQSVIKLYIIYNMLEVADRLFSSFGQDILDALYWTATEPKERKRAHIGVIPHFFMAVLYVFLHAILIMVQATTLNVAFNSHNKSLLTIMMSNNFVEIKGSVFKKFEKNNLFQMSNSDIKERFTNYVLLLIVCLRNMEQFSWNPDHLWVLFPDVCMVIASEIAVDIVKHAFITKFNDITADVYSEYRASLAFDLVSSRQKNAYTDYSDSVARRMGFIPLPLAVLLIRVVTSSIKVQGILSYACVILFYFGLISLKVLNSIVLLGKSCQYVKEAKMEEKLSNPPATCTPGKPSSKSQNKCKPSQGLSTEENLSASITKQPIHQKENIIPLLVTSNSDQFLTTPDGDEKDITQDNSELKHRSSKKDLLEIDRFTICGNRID

compound: Cc1cc(ccc1-c1ccccc1)C(=O)N1CCCN(CC1)C(=O)CCl [compound 10]; assay: probe-labelled cysteine peptide fold change vs DMSO (competition) (log2 fold change); higher = less target engagement (more negative = stronger competition); conditions: 10 µM; THP-1; incubation time: 4 h
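Note: competitive profiling in live THP-1 cells: cysteine peptides tagged with an iodoacetamide desthiobiotin (IA-DTB) probe, intensity after compound treatment relative to DMSO-treated cells.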

Point of comparison: “TACC3_Q9Y6A5_426_SGCSEAQPPESPETR (UniProt Q9Y6A5)”, “probe-labelled cysteine peptide fold change” value -0.1. Against it:
- TADA2B_Q86TJ2_359_VLCSSLNLSPAR (UniProt Q86TJ2) — higher, 0.0971
- TBC1D2B_Q9UPU7_554_TPVCSEDQGPTR (UniProt Q9UPU7) — lower, -0.259
- TACC1_O75410_715_CAQDYLAR (UniProt O75410) — lower, -0.432
- TBC1D22B_Q9NU19_144_NSSDTCLR (UniProt Q9NU19) — lower, -0.263
- TBC1D22A_Q8WUA7_151_SVSESHTSCPAESASDAAPLQR (UniProt Q8WUA7) — lower, -0.431
- TAMM41_Q96BW9_285_DVEETLFQVAHDPDCGDVVR (UniProt Q96BW9) — higher, -0.0697
- TBCD_Q9BTW9_269_EDCLPYAATVLR (UniProt Q9BTW9) — lower, -0.199
- TAGLN2_P37802_63_DGTVLCELINALYPEGQAPVKK (UniProt P37802) — higher, 0.178
- TATDN3_Q17R31_66_YNGFVLPCLGVHPVQGLPPEDQR (UniProt Q17R31) — higher, 0.0121
- TARS_P26639_413+417_ELFALKPMNCPGHCLMFDHRPR (UniProt P26639) — higher, 0.00324
- TBC1D8B_Q0IIM8_840_HHDPSLPYLEQYQIDCQQFR (UniProt Q0IIM8) — higher, 0.15
- TAF4_O00268_1066_DLIFCLENER (UniProt O00268) — higher, 0.0993
- TBC1D5_Q92609_219_QGMHELLAPIVFVLHCDHQAFLHASESAQPSEEMK (UniProt Q92609) — higher, 0.363
- TBL2_Q9Y4P3_240_GQVLSTINTNQMNNTHAAVSPCGR (UniProt Q9Y4P3) — higher, -0.0462
- TBC1D24_Q9ULP9_404_EVCGAYLSTDWSER (UniProt Q9ULP9) — higher, 0.266
- TACC3_Q9Y6A5_20_NTENCDFLFSPPEVTGR (UniProt Q9Y6A5) — higher, 0.0968
- TARS_P26639_630_QVMVVPVGPTCDEYAQK (UniProt P26639) — lower, -0.189
- TACC3_Q9Y6A5_206_VTPASETLEDPCR (UniProt Q9Y6A5) — higher, -0.0918
- TATDN1_Q6P1N9_113_VVAIGECGLDFDRLQFCPK (UniProt Q6P1N9) — higher, -0.00511
- TBC1D1_Q86TI0_766_LDYEEITPCLK (UniProt Q86TI0) — lower, -0.284
- TCIRG1_Q13488_241_ITDCFHCHVFPFLQQEEAR (UniProt Q13488) — higher, 0.0627
- TBC1D13_Q9NVG8_261_EHAEADTFFCFTNLMAEIRDNFIK (UniProt Q9NVG8) — lower, -0.104
- TBL3_Q12788_613_VWGLHCSR (UniProt Q12788) — higher, 0.00409
- TBC1D22B_Q9NU19_206_CSWPGVPR (UniProt Q9NU19) — higher, -0.0108
- TARS2_Q9BW92_233_VTGPTATVYGCGTLVDLCQGPHLR (UniProt Q9BW92) — higher, 0.287
- TACC1_O75410_467_LITSGCK (UniProt O75410) — lower, -0.632
- TAPT1_Q6NXT6_562_DLLEIDRFTICGNR (UniProt Q6NXT6) — lower, -0.129
- TAGLN2_P37802_124_NMACVQR (UniProt P37802) — higher, 0.191
- SYNJ2_O15056_31_GRDDCLLFEAGTVATLAPEEK (UniProt O15056) — higher, 0.124
- TARBP1_Q13395_1481_LIVVASLIDKPTNLGGLCR (UniProt Q13395) — higher, -0.0174
- TBL2_Q9Y4P3_335_TGRFEEAAGAAPCR (UniProt Q9Y4P3) — higher, -0.0445
- TARS_P26639_413_ELFALKPMNCPGHCLMFDHRPR (UniProt P26639) — higher, 0.061
- TBCD_Q9BTW9_681_QAVCVLIEK (UniProt Q9BTW9) — higher, 0.0814
- TBL2_Q9Y4P3_95_SHSGNISCMDFSSNGK (UniProt Q9Y4P3) — higher, -0.0987

same assay, conditions: 50 µM; THP-1; incubation time: 4 h

Point of comparison: “TBL3_Q12788_613_VWGLHCSR (UniProt Q12788)”, “probe-labelled cysteine peptide fold change” value 0.216. Against it:
- TADA2B_Q86TJ2_359_VLCSSLNLSPAR (UniProt Q86TJ2) — lower, 0.0747
- TBC1D2B_Q9UPU7_554_TPVCSEDQGPTR (UniProt Q9UPU7) — lower, -0.205
- TACC1_O75410_715_CAQDYLAR (UniProt O75410) — lower, -0.213
- TACC3_Q9Y6A5_426_SGCSEAQPPESPETR (UniProt Q9Y6A5) — lower, -0.542
- TBC1D22B_Q9NU19_144_NSSDTCLR (UniProt Q9NU19) — lower, -0.673
- TBC1D22A_Q8WUA7_151_SVSESHTSCPAESASDAAPLQR (UniProt Q8WUA7) — lower, -0.272
- TAMM41_Q96BW9_285_DVEETLFQVAHDPDCGDVVR (UniProt Q96BW9) — lower, -0.115
- TBCD_Q9BTW9_269_EDCLPYAATVLR (UniProt Q9BTW9) — lower, -0.0376
- TAGLN2_P37802_63_DGTVLCELINALYPEGQAPVKK (UniProt P37802) — lower, -0.187
- TATDN3_Q17R31_66_YNGFVLPCLGVHPVQGLPPEDQR (UniProt Q17R31) — higher, 1.04
- TARS_P26639_413+417_ELFALKPMNCPGHCLMFDHRPR (UniProt P26639) — lower, -0.342
- TBC1D8B_Q0IIM8_840_HHDPSLPYLEQYQIDCQQFR (UniProt Q0IIM8) — higher, 0.682
- TAF4_O00268_1066_DLIFCLENER (UniProt O00268) — higher, 0.252
- TBC1D5_Q92609_219_QGMHELLAPIVFVLHCDHQAFLHASESAQPSEEMK (UniProt Q92609) — lower, 0.126
- TBL2_Q9Y4P3_240_GQVLSTINTNQMNNTHAAVSPCGR (UniProt Q9Y4P3) — lower, 0.0804
- TBC1D24_Q9ULP9_404_EVCGAYLSTDWSER (UniProt Q9ULP9) — higher, 0.219
- TACC3_Q9Y6A5_20_NTENCDFLFSPPEVTGR (UniProt Q9Y6A5) — higher, 0.244
- TARS_P26639_630_QVMVVPVGPTCDEYAQK (UniProt P26639) — lower, 0.0903
- TACC3_Q9Y6A5_206_VTPASETLEDPCR (UniProt Q9Y6A5) — lower, 0.0974
- TATDN1_Q6P1N9_113_VVAIGECGLDFDRLQFCPK (UniProt Q6P1N9) — lower, -0.419
- TBC1D1_Q86TI0_766_LDYEEITPCLK (UniProt Q86TI0) — lower, 0.103
- TCIRG1_Q13488_241_ITDCFHCHVFPFLQQEEAR (UniProt Q13488) — lower, 0.0932
- TBC1D13_Q9NVG8_261_EHAEADTFFCFTNLMAEIRDNFIK (UniProt Q9NVG8) — lower, -0.178
- TBC1D22B_Q9NU19_206_CSWPGVPR (UniProt Q9NU19) — lower, 0.205
- TARS2_Q9BW92_233_VTGPTATVYGCGTLVDLCQGPHLR (UniProt Q9BW92) — lower, -0.223
- TACC1_O75410_467_LITSGCK (UniProt O75410) — lower, -0.628
- TAPT1_Q6NXT6_562_DLLEIDRFTICGNR (UniProt Q6NXT6) — lower, -0.0106
- TAGLN2_P37802_124_NMACVQR (UniProt P37802) — lower, 0.0769
- SYNJ2_O15056_31_GRDDCLLFEAGTVATLAPEEK (UniProt O15056) — lower, 0.106
- TARBP1_Q13395_1481_LIVVASLIDKPTNLGGLCR (UniProt Q13395) — lower, -0.254
- TBL2_Q9Y4P3_335_TGRFEEAAGAAPCR (UniProt Q9Y4P3) — lower, -0.357
- TARS_P26639_413_ELFALKPMNCPGHCLMFDHRPR (UniProt P26639) — lower, -0.158
- TBCD_Q9BTW9_681_QAVCVLIEK (UniProt Q9BTW9) — higher, 0.262
- TBL2_Q9Y4P3_95_SHSGNISCMDFSSNGK (UniProt Q9Y4P3) — lower, 0.0352
